The values below come from PMC5715403.

The test deals with NifB from Chlorobium tepidum (NifBCt), His9-tagged (Chlorobium tepidum) (UniProt Q8KC85). In words: SEC; anaerobic; HiLoad 16/600 Superdex 200; 50 μM Na2HPO4 pH 7.6, 180 μM NaCl, 10% glycerol, 5 μM 2-mercaptoethanol, 2 μM Na2S2O4 (units as printed); 1 ml/min; calibrated with aldolase, conalbumin, ovalbumin, carbonic anhydrase; both purified. In general terms: Size exclusion chromatography separates by hydrodynamic size, large species first.

No constants are given. Whether binding was seen depends on the method and setting. Where a sequence is shown, tags or fusion partners need not be part of it.

B1: NifB from Chlorobium tepidum (NifBCt), His9-tagged (enzyme, UniProt Q8KC85 1-424)
chain: MTLNIKNHPCFNDSSRHTYGRIHLPVAPKCNIQCNYCNRKFDCMNENRPGITSKVLSPRQALYYLDNALKLSPNISVVGIAGPGDPFANPEETMETLRLVREKYPEMLLCVATNGLDMLPYIEELAELQVSHVTLTINAIDPEIGQEIYAWVRYQKKMYRDRQAAELLLENQLAALQKLKRYGVTAKVNSIIIPGVNDQHVIEVARQVASMGADILNALPYYNTTETVFENIPEPDPMMVRKIQEEAGKLLPQMKHCARCRADAVGIIGEINSDEMMAKLAEAALMPKNPDEHRPYIAVASLEGVLINQHLGEADRFLVYALDEEKKSCTLVDSRQAPPPGGGKLRWEALAAKLSDCRAVLVNSAGDSPQSVLKASGIDVMSIEGVIEEAVYGVFTGQNLKHLMKSSQIHACKTSCGGDGNGCD
Regarding B1, the binding entry was “no binding”.
